Some peptides are written in HELM: one residue between dots, names in brackets for other building blocks, links after the first $.
Experiment: general procedure: Fmoc solid-phase peptide synthesis; 2-chlorotrityl chloride (2-CTC) resin
Details: conjugation step

Substance: PEPTIDE1{P.D.L.[Lys(ct)].[PheOdzEt]}$PEPTIDE1,PEPTIDE1,1:R1-5:R2$$$V2.0
- conjugation yield: 39.3%
